Experimental data published in the supplement of paper PMC11264405.

Columns and labels:
Experiment in all cases: minimum inhibitory concentration
linezolid = compound: CC(=O)NC[C@H]1CN(c2ccc(N3CCOCC3)c(F)c2)C(=O)O1 [linezolid]
clindamycin = compound: CCC[C@@H]1C[C@@H](C(=O)N[C@@H]([C@H]2O[C@H](SC)[C@H](O)[C@@H](O)[C@H]2O)[C@H](C)Cl)N(C)C1 [clindamycin]
fidaxomicin = compound: CCc1c(Cl)c(O)c(Cl)c(O)c1C(=O)O[C@H]1[C@H](O)[C@H](OC)[C@H](OC/C2=C\C=C\C[C@H](O)/C(C)=C/[C@H](CC)[C@@H](O[C@@H]3OC(C)(C)[C@@H](OC(=O)C(C)C)[C@H](O)[C@@H]3O)/C(C)=C/C(C)=C/C[C@@H]([C@@H](C)O)OC2=O)O[C@@H]1C [fidaxomicin]
tigecycline = compound: CN(C)c1cc(NC(=O)CNC(C)(C)C)c(O)c2c1C[C@H]1C[C@H]3[C@H](N(C)C)C(O)=C(C(N)=O)C(=O)[C@@]3(O)C(O)=C1C2=O [tigecycline]
vancomycin = compound: CN[C@H](CC(C)C)C(=O)N[C@H]1C(=O)N[C@@H](CC(N)=O)C(=O)N[C@H]2C(=O)N[C@H]3C(=O)N[C@H](C(=O)N[C@H](C(=O)O)c4cc(O)cc(O)c4-c4cc3ccc4O)[C@H](O)c3ccc(c(Cl)c3)Oc3cc2cc(c3O[C@@H]2O[C@H](CO)[C@@H](O)[C@H](O)[C@H]2O[C@H]2C[C@](C)(N)[C@H](O)[C@H](C)O2)Oc2ccc(cc2Cl)[C@H]1O [vancomycin]
rifampicin = compound: CO[C@H]1/C=C/O[C@@]2(C)Oc3c(C)c(O)c4c(O)c(c(/C=N/N5CCN(C)CC5)c(O)c4c3C2=O)NC(=O)/C(C)=C\C=C\[C@H](C)[C@H](O)[C@@H](C)[C@@H](O)[C@@H](C)[C@H](OC(C)=O)[C@@H]1C [rifampicin]
imipenem = compound: C[C@@H](O)[C@H]1C(=O)N2C(C(=O)O)=C(SCCNC=N)C[C@H]12 [imipenem]
meropenem = compound: C[C@@H](O)[C@H]1C(=O)N2C(C(=O)O)=C(S[C@@H]3CN[C@H](C(=O)N(C)C)C3)[C@H](C)[C@H]12 [meropenem]
metronidazole = compound: Cc1ncc([N+](=O)[O-])n1CCO [metronidazole]

Test System | minimum inhibitory concentration (linezolid) [mg/L] | minimum inhibitory concentration (clindamycin) [mg/L] | minimum inhibitory concentration (fidaxomicin) [mg/L] | minimum inhibitory concentration (tigecycline) [mg/L] | minimum inhibitory concentration (vancomycin) [mg/L] | minimum inhibitory concentration (rifampicin) [ng/mL] | minimum inhibitory concentration (imipenem) [mg/L] | minimum inhibitory concentration (meropenem) [mg/L] | minimum inhibitory concentration (metronidazole) [mg/L]
Clostridioides difficile PCR ribotype 078 isolate #337 (European region: South, country: Spain, isolate source: Animal, ribotype: 078) | 2 | 4 | 0.03 | < 0.03 | 1 | < 1 | 2 | 2 | 0.25
Clostridioides difficile PCR ribotype 078 isolate #338 (European region: South, country: Spain, isolate source: Animal, ribotype: 078) | 2 | > 128 | 0.06 | < 0.03 | 1 | < 1 | 2 | 2 | 0.25
Clostridioides difficile PCR ribotype 078 isolate #339 (European region: South, country: Spain, isolate source: Animal, ribotype: 078) | 2 | 4 | 0.06 | < 0.03 | 1 | < 1 | 2 | 2 | 0.25
Clostridioides difficile PCR ribotype 078 isolate #340 (European region: South, country: Spain, isolate source: Animal, ribotype: 078) | 2 | 8 | 0.06 | < 0.03 | 1 | < 1 | 4 | 2 | 0.25
Clostridioides difficile PCR ribotype 078 isolate #341 (European region: East, country: Romania, isolate source: Animal, ribotype: 078) | 2 | 8 | 0.06 | < 0.03 | 1 | < 1 | 4 | 2 | 0.25
Clostridioides difficile PCR ribotype 078 isolate #342 (European region: East, country: Romania, isolate source: Animal, ribotype: 078) | 2 | 8 | 0.06 | < 0.03 | 1 | < 1 | 4 | 2 | 0.25
Clostridioides difficile PCR ribotype 078 isolate #343 (European region: West, country: France, isolate source: Animal, ribotype: 078) | 2 | 16 | 0.03 | < 0.03 | 0.5 | < 1 | 2 | 2 | 0.25
Clostridioides difficile PCR ribotype 078 isolate #344 (European region: West, country: France, isolate source: Animal, ribotype: 078) | 2 | 2 | 0.06 | < 0.03 | 1 | < 1 | 2 | 2 | 0.25
Clostridioides difficile PCR ribotype 078 isolate #345 (European region: West, country: France, isolate source: Animal, ribotype: 078) | 2 | 2 | 0.03 | < 0.03 | 1 | < 1 | 2 | 2 | 0.25
Clostridioides difficile PCR ribotype 078 isolate #346 (European region: West, country: France, isolate source: Animal, ribotype: 078) | 2 | 2 | 0.03 | < 0.03 | 0.5 | < 1 | 2 | 2 | 0.25
Clostridioides difficile PCR ribotype 078 isolate #347 (European region: West, country: Austria, isolate source: Animal, ribotype: 078) | 2 | 16 | 0.03 | 0.06 | 2 | < 1 | 2 | 2 | 0.25
Clostridioides difficile PCR ribotype 078 isolate #348 (European region: West, country: Netherlands, isolate source: Animal, ribotype: 078) | 2 | 2 | 0.03 | < 0.03 | 1 | < 1 | 2 | 4 | 0.25
Clostridioides difficile PCR ribotype 078 isolate #349 (European region: West, country: France, isolate source: Animal, ribotype: 078) | 2 | 2 | 0.03 | 0.06 | 1 | < 1 | 2 | 2 | < 0.125
Clostridioides difficile PCR ribotype 078 isolate #350 (European region: South, country: Spain, isolate source: Animal, ribotype: 078) | 2 | 2 | 0.03 | 0.06 | 0.5 | < 1 | 1 | 4 | < 0.125
Clostridioides difficile PCR ribotype 078 isolate #351 (European region: South, country: Spain, isolate source: Animal, ribotype: 078) | 2 | 8 | 0.03 | 0.06 | 0.5 | < 1 | 0.5 | 2 | < 0.125
Clostridioides difficile PCR ribotype 078 isolate #352 (European region: South, country: Spain, isolate source: Animal, ribotype: 078) | 2 | 8 | 0.03 | 0.06 | 0.5 | < 1 | 1 | 2 | 0.25
Clostridioides difficile PCR ribotype 078 isolate #353 (European region: South, country: Spain, isolate source: Animal, ribotype: 078) | 2 | 8 | 0.015 | 0.06 | 0.5 | < 1 | 0.5 | 2 | < 0.125
Clostridioides difficile PCR ribotype 078 isolate #354 (European region: South, country: Spain, isolate source: Animal, ribotype: 078) | 2 | 2 | 0.03 | 0.125 | 0.5 | < 1 | 2 | 4 | 0.25
Clostridioides difficile PCR ribotype 078 isolate #355 (European region: South, country: Spain, isolate source: Animal, ribotype: 078) | 2 | 4 | 0.015 | 0.06 | 0.5 | < 1 | 2 | 4 | 0.25
Clostridioides difficile PCR ribotype 078 isolate #356 (European region: South, country: Spain, isolate source: Animal, ribotype: 078) | 2 | 2 | 0.015 | 0.125 | 1 | < 1 | 1 | 4 | 0.25
Clostridioides difficile PCR ribotype 078 isolate #357 (European region: West, country: Netherlands, isolate source: Animal, ribotype: 078) | 2 | 2 | 0.03 | 0.125 | 0.5 | < 1 | 2 | 4 | 0.25
Clostridioides difficile PCR ribotype 078 isolate #358 (European region: West, country: Netherlands, isolate source: Animal, ribotype: 078) | 2 | 2 | 0.03 | 0.125 | 0.5 | < 1 | 2 | 4 | 2
Clostridioides difficile PCR ribotype 078 isolate #359 (European region: North, country: Sweden, isolate source: Animal, ribotype: 078) | 4 | 2 | 0.015 | 0.06 | 0.5 | < 1 | 4 | 4 | 0.25
Clostridioides difficile PCR ribotype 078 isolate #360 (European region: South, country: Italy, isolate source: Animal, ribotype: 078) | 2 | 8 | 0.015 | 0.06 | 1 | < 1 | 2 | 4 | 0.25
Clostridioides difficile PCR ribotype 078 isolate #361 (European region: South, country: Italy, isolate source: Animal, ribotype: 078) | 2 | 8 | 0.03 | 0.06 | 1 | < 1 | 2 | 2 | < 0.125
Clostridioides difficile PCR ribotype 078 isolate #362 (European region: South, country: Italy, isolate source: Animal, ribotype: 078) | 2 | 16 | 0.03 | 0.06 | 1 | < 1 | 2 | 2 | < 0.125

A different layout for part of the listing above.

| Test System | minimum inhibitory concentration (linezolid) [mg/L] | minimum inhibitory concentration (clindamycin) [mg/L] | minimum inhibitory concentration (fidaxomicin) [mg/L] | minimum inhibitory concentration (tigecycline) [mg/L] | minimum inhibitory concentration (vancomycin) [mg/L] | minimum inhibitory concentration (rifampicin) [ng/mL] | minimum inhibitory concentration (imipenem) [mg/L] | minimum inhibitory concentration (meropenem) [mg/L] | minimum inhibitory concentration (metronidazole) [mg/L] |
| --- | --- | --- | --- | --- | --- | --- | --- | --- | --- |
| Clostridioides difficile PCR ribotype 078 isolate #358 (European region: West, country: Netherlands, isolate source: Animal, ribotype: 078) | 2 | 2 | 0.03 | 0.125 | 0.5 | < 1 | 2 | 4 | 2 |
| Clostridioides difficile PCR ribotype 078 isolate #361 (European region: South, country: Italy, isolate source: Animal, ribotype: 078) | 2 | 8 | 0.03 | 0.06 | 1 | < 1 | 2 | 2 | < 0.125 |
